Assay results reported in PubChem BioAssay AID1671190 (National Center for Advancing Translational Sciences (NCATS), 2021).
Several values for one entry are separate records, joined by “and”; a condition that tells them apart may be missing. Equal values may be shown once. Screen size: about 580,000 compounds; about 6,100 (1.1%) were called active. Inconclusive means that the source gave no clear call. Such entries were picked first, then a sample of the others. The call rests on the fitted dose curve; in most records, active means well fitted inhibition curve with a large enough effect; inconclusive means small, poorly fitted or top-dose-only effect, or another doubt; inactive means no such curve, though single readings can be large or run the other way. A potency beside an inconclusive call is a rough fit, not a confirmed value. Some structures have more than one record in an assay (separate samples or runs), and their calls can disagree.
On the % scale 0 is the no-effect control and ±100 the full control effect; potency means the concentration at half of the fitted maximal effect.

By UniProt entry, the sequences of proteins in these tests, tags left out. Where a name states a change or a piece, a line headed by the entry shows the natural chain unless it says otherwise.
UniProt P18054: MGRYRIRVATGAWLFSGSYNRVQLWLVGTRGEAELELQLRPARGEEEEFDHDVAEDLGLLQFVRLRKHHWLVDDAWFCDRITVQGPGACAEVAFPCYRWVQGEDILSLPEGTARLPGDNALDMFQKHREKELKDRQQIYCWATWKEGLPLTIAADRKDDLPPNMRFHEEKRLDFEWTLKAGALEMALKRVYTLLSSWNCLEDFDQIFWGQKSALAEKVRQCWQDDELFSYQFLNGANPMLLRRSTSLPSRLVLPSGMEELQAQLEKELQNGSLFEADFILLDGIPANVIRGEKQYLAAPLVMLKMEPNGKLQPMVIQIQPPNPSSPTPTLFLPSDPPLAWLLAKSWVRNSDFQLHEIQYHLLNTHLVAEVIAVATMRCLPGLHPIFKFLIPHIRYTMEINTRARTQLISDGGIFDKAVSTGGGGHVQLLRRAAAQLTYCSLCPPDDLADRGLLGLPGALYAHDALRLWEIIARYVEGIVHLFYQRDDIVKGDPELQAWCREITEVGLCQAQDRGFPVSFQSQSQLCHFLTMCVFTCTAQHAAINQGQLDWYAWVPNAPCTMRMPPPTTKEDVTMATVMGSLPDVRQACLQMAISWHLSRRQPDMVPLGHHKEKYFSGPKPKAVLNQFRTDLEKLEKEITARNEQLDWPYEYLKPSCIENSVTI

These compounds were tested against Polyunsaturated fatty acid lipoxygenase ALOX12 (Homo sapiens) (UniProt P18054) (assay: Primary qHTS assay for inhibitors of human arachidonate 12S-lipoxygenase (ALOX12): Round 2). Conditions: purified 12hLO, xylenol orange hydroperoxide absorbance; activity change, negative = inhibition: at 108 µM (top of the series) unless noted.
Summary of the method: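 Purified human 12hLO at 150 nM in 25 mM Hepes, 0.01% Triton X-100, pH 7.0, preincubated 15 min at room temperature with compound. Reaction started with 40 uM arachidonic acid, 30 min at room temperature. Hydroperoxide measured by Fe-xylenol orange, 573/405 nm absorbance ratio.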
In the case of `O=C(CCN1Cc2ccccc2C1)c1ccc2c(c1)OCCO2`, the Potency is reported as inconclusive: 44.7 µM [inhibitor, full curve, poor fit]. For `CCNC(=S)NNc1nc(N2CCCCC2)nc(N2CCOCC2)n1`, the Potency was inconclusive: 56.2 µM [inhibitor, partial curve, poor fit]. For `Cc1nc2cc(C(=O)O)ccc2n1C1CCCCC1`, the Potency was inconclusive: 15.8 µM [inhibitor, full curve, poor fit]. For `Nn1c(CSc2ccccn2)nc2ccccc2c1=O`, the “activity change, negative = inhibition” value was inactive: -0.636%. In the case of `CCOc1ccccc1OCCOc1ccc(Cl)c(CC)c1`, the Potency is reported as inconclusive: 39.8 µM [inhibitor, partial curve, poor fit]. For `CCn1ncc(Br)c1C(=O)Nc1cccc(C(C)=O)c1`, the Potency was inconclusive: 17.8 µM [inhibitor, partial curve]. For `CCOc1ccc(CCNc2nc3ccccc3n3cnnc23)cc1OCC`, the “activity change, negative = inhibition” value was inactive: 11.8%. In the case of `CC1Cc2ccccc2N1C(=O)Cn1c(=O)oc2cc(S(=O)(=O)NC3CCCC3)ccc21` (stereo not given), the Potency is reported as inconclusive: 100 µM [inhibitor, single point]. For `Cc1ccc(N(CN2C(=O)C3CC=CCC3C2=O)C(=O)c2ccco2)cc1Cl` (stereo not given), the Potency was inconclusive: 2 µM [inhibitor, full curve, poor fit]. In the case of `Cc1nn(-c2ccc(C(F)(F)F)cc2)c(C)c1[C@@H]1C=C[C@@H](NC(=O)c2cccnc2)C1`, the “activity change, negative = inhibition” value is reported as inactive: 12.7% [at 176 µM]. In the case of `N#Cc1ccc(CN2CCC3(CC2)COCCN3C(=O)OCc2ccccc2)cc1`, the Potency is reported as inconclusive: 63.1 µM [inhibitor, full curve, poor fit]. In the case of `Cc1ccc2c(c1)/C(=C/c1ccco1)C(=O)N2`, the Potency is reported as inconclusive: 50.1 µM [inhibitor, partial curve, poor fit]. `COC(=O)c1ccc(CN2CCCC(CNC(=O)Cc3ccc(OC)cc3)C2)cc1` (stereo not given) was tested, and the “activity change, negative = inhibition” value was inactive: 1.01%. `O=C(O)CCN1CCOCC1` was tested, and the Potency was inconclusive: 63.1 µM [inhibitor, partial curve, poor fit]. For `CC(=O)c1sc2ccccc2c1OC(=O)c1ccc(C(C)(C)C)cc1`, the “activity change, negative = inhibition” value was inactive: -3.97%. `CC(=O)N1CN(CCCn2ccnc2)Cc2c1sc1c2CCCC1` was tested, and the “activity change, negative = inhibition” value was inactive: 25%. For `Cc1cc(=O)[nH]c(SCC(=O)Nc2ccc(Br)cc2)n1`, the Potency was inconclusive: 50.1 µM [inhibitor, partial curve, poor fit]. With `Cc1cccc(C)c1NC(=O)NC1(C(=O)NCC2CCCO2)CCCCC1` (stereo not given) the Potency was inconclusive: 141 µM [inhibitor, partial curve, poor fit]. In the case of `CCCNc1nc(Cl)nc(NCc2cccnc2)n1`, the Potency is reported as inconclusive: 79.4 µM [inhibitor, single point]. `COc1cccc(CNC(=O)Cn2cccc2C(=O)c2ccccc2)c1` was tested, and the “activity change, negative = inhibition” value was inactive: -26.1%. For `COc1ccc(OC)c(-n2c(-c3cc(-c4ccco4)[nH]n3)n[nH]c2=S)c1`, the Potency was inconclusive: 44.7 µM [inhibitor, partial curve, poor fit]. In the case of `COc1ccc(C(=O)N2CCN(c3nc4nc(C)ccc4o3)CC2)cc1`, the “activity change, negative = inhibition” value is reported as inactive: 0.657%. `CCOC(=O)C1C(=O)C=C(c2ccc(OC)cc2)CC1c1ccco1` (stereo not given) was tested, and the Potency was inconclusive: 44.7 µM [inhibitor, partial curve, poor fit]. `CCc1ccc(-c2nc(SCC(=O)c3c(N)n(C)c(=O)n(C)c3=O)n[nH]2)cc1` was tested, and the Potency was inconclusive: 1.58 µM [inhibitor, single point]. For `COc1ccc(-c2nc(-c3cccs3)c(-c3cccs3)[nH]2)cc1O`, the “activity change, negative = inhibition” value was inactive: -20.5%. With `CCOc1ccccc1OCCCC(=O)Nc1nc2ccccc2[nH]1` the Potency was inconclusive: 14.1 µM [inhibitor, partial curve, poor fit]. For `O=C(NCc1ccccc1)C1Nc2ccc(OC(F)(F)F)cc2C2C=CCC12` (stereo not given), the “activity change, negative = inhibition” value was inactive: -24.5%. `C=Cc1cc2c(cc1O)CCC1C2CCC2(C)C(O)CCC12` (stereo not given) was tested, and the Potency was inconclusive: 70.8 µM [inhibitor, partial curve, poor fit]. In the case of `Cc1ccccc1OCC(=O)Nc1ccc2oc(-c3ccccc3C)nc2c1`, the “activity change, negative = inhibition” value is reported as inactive: -1.02%. `COc1ccc(C(=O)NCCC2=CCCCC2)cc1S(=O)(=O)N1CCOCC1` was tested, and the Potency was inconclusive: 70.8 µM [inhibitor, partial curve, poor fit]. In the case of `CC1CCN([C@@H]2[C@H](O)[C@H](CO)O[C@@H]2CNC2CCOCC2)CC1`, the Potency is reported as inconclusive: 31.6 µM [inhibitor, partial curve]. With `CCN(CC)S(=O)(=O)c1cc(NC(=S)NC(=O)C2CCCC2)ccc1C` the Potency was inconclusive: 39.8 µM [inhibitor, partial curve, poor fit]. In the case of `CCc1n[nH]c(=S)n1/N=C/c1ccccn1`, the Potency is reported as inconclusive: 25.1 µM [inhibitor, partial curve, poor fit]. In the case of `Cn1c(O)c(C2=Nc3ccccc3SC(c3ccc(O)cc3)C2)c(=O)[nH]c1=O` (stereo not given), the Potency is reported as inconclusive: 100 µM [inhibitor, single point]. For `Cc1cccc(C)c1NC(=O)C1c2ccccc2OCC(=O)N1Cc1ccccc1` (stereo not given), the “activity change, negative = inhibition” value was inactive: -12.8%. For `O=C(c1ccc(Cl)cc1)N1CCOC(CN(C(=O)c2ccc(F)cc2)C2CCCC2)C1` (stereo not given), the Potency was inconclusive: 15.8 µM [inhibitor, full curve, poor fit]. With `O=C(Nc1ccc(C(F)(F)F)cc1)N1CCCC1c1nncn1C1CCCC1` (stereo not given) the “activity change, negative = inhibition” value was inactive: 13%. With `COc1cc2c(cc1OC)-c1c(c(C(=O)N3CCCC3)nn1-c1ccccc1Cl)C2` the “activity change, negative = inhibition” value was inactive: -20.8%. For `CC(C)c1ccc(-c2nn(-c3ccccc3)cc2/C=N/O)cc1`, the Potency was inconclusive: 5.01 µM [inhibitor, full curve, poor fit]. For `CCN(C(=O)c1cnc(N2CCOCC2)c2ccccc12)c1cccc(C)c1`, the “activity change, negative = inhibition” value was inactive: -2.07%. With `COC(=O)c1[nH]c(C)c(/C(O)=C2\C(=O)C(=O)N(CCN3CCOCC3)C2c2cccs2)c1C` (stereo not given) the Potency was inconclusive: 2.82 µM [inhibitor, partial curve, poor fit]. With `Cc1cc(-c2csc(N)n2)c(C)n1C` the Potency was inconclusive: 44.7 µM [inhibitor, partial curve, poor fit]. In the case of `CCC(NC(=O)c1ccc2nc(-c3ccc(F)cc3)cn2c1)c1cccnc1` (stereo not given), the “activity change, negative = inhibition” value is reported as inactive: 64.9%. For `CCOc1ccc(-n2c(C)c(C(=O)O)c3cc(OC)ccc32)cc1`, the Potency was “inactive”. `CCc1cccc(C)c1NC(=O)C(NS(=O)(=O)c1ccc2c(c1)CCC(=O)N2)c1ccccc1` (stereo not given) was tested, and the “activity change, negative = inhibition” value was inactive: -31%. In the case of `Cc1ccccc1-c1nc(CN2CCC(C(=O)O)CC2)c(C)o1`, the “activity change, negative = inhibition” value is reported as inactive: 13.1% [at 57.4 µM]. For `COc1cc(Cl)c(CNC[C@H]2O[C@@H](n3cnc4c(=O)[nH]c(N)nc43)[C@H](O)[C@@H]2O)c(Cl)c1O`, the Potency was inconclusive: 79.4 µM [inhibitor, single point]. In the case of `CC[N+](CC)(CC)CCOc1ccc(/C=C/c2ccccc2)cc1`, the Potency is reported as inconclusive: 11.4 µM [inhibitor, partial curve, poor fit] and active: 50.1 µM. In the case of `CCOc1ccccc1C(=O)Nc1ccc(C(F)(F)F)oc1=O`, the Potency is reported as inconclusive: 44.7 µM [inhibitor, partial curve, poor fit]. For `C#CCOCCOCCOCCNc1nc(N2CCN(C(=O)[C@H]([C@@H](C)CC)n3cc(CCCN=C(N)N)nn3)CC2)nc(N2CCN(C(=O)[C@H](CCCCN)n3cc(CCCC)nn3)CC2)n1`, the Potency was inconclusive: 28.2 µM [inhibitor, partial curve, poor fit]. For `COCCN(C(=O)CSCc1ccc(C)cc1)c1c(N)n(CC(C)C)c(=O)[nH]c1=O`, the Potency was inconclusive: 39.8 µM [inhibitor, partial curve, poor fit]. For `CC(=O)c1ccc(NC(=S)NCc2ccco2)cc1`, the “activity change, negative = inhibition” value was inactive: 3.06%. With `c1nc(N2CCOCC2)c2cc(-c3ccoc3)ccc2n1` the Potency was inconclusive: 6.31 µM [inhibitor, full curve, poor fit]. With `Cc1ccc(C)c(N2CCN(C(c3ccccc3)c3nnc(-c4ccccc4)o3)CC2)c1` (stereo not given) the activity change, negative = inhibition was inconclusive: -37.1% [inhibitor]. For `COc1ccc(C(=O)NCc2ccc(Cl)cc2)cc1S(=O)(=O)N1CCCC1`, the Potency was inconclusive: 70.8 µM [inhibitor, partial curve, poor fit]. For `O=C(C1=C(O)C(=O)N(CCOCCO)C1c1ccccn1)c1cccs1` (stereo not given), the Potency was inconclusive: 3.55 µM [inhibitor, full curve, poor fit]. `Cc1ccc(NS(=O)(=O)c2c(C)nc3sc(C)c(C)n3c2=O)cc1F` was tested, and the Potency was inconclusive: 112 µM [inhibitor, partial curve, poor fit]. In the case of `COc1ccc(OC)c(C2=NS(=O)(=O)N(C)C(C(=O)N3CCC4(CC3)OCCO4)=C2)c1`, the “activity change, negative = inhibition” value is reported as inactive: -1.9%. In the case of `Cc1ccc(S(=O)(=O)NN=Cc2cc(Cl)ccc2O)cc1`, the Potency is reported as inconclusive: 70.8 µM [inhibitor, partial curve, poor fit]. `COc1cc2c(cc1OC)-c1cc(Nc3ccccc3)nc(=O)n1CC2` was tested, and the Potency was inconclusive: 39.8 µM [inhibitor, partial curve, poor fit]. For `O=C(CN1CCN(c2ccc(O)cc2)CC1)Nc1cccc(S(=O)(=O)N2CCCC2)c1`, the Potency was inconclusive: 12.6 µM [inhibitor, full curve]. In the case of `COc1cccc(NC(=O)Cc2c(C)c3c(O)cc(C)cc3oc2=O)c1`, the Potency is reported as inconclusive: 35.5 µM [inhibitor, partial curve, poor fit]. `O=C(NCC1CC1)c1nc2c(o1)CCN(Cc1cccc(F)c1)CC2` was tested, and the Potency was inconclusive: 28.2 µM [inhibitor, partial curve, poor fit]. For `CC1(C)NC(=O)N(CC(O)CN(c2ccccc2)S(=O)(=O)c2ccccc2[N+](=O)[O-])C1=O` (stereo not given), the Potency was inconclusive: 126 µM [inhibitor, partial curve, poor fit]. With `Cc1ccc2c(c1)-c1c(cnc3cc(-c4ccc(Cl)cc4)nn13)CO2` the “activity change, negative = inhibition” value was inactive: -19.7%.
